The experiment addresses T1, atypical protein kinase C-ι (human (endogenous in CCA tissues, TFK-1 and HuCCT1)) (UniProt P41743).
T1 sequence: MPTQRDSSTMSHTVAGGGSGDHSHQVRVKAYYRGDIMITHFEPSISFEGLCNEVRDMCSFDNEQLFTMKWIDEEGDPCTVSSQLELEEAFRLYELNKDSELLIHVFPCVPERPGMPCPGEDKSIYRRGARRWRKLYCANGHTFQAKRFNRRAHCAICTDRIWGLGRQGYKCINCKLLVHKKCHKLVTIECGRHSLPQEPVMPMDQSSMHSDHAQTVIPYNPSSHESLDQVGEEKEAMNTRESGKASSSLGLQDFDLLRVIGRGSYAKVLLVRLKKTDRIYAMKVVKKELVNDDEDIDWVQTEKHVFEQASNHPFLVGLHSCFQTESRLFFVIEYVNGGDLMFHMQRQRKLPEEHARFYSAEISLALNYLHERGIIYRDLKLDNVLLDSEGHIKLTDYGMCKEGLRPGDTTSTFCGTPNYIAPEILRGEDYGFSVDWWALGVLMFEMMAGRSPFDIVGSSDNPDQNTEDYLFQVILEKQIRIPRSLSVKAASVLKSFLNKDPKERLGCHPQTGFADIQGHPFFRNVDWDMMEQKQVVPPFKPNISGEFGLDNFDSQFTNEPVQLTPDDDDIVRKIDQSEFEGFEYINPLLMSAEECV
The experiment in a line: co-IP; endogenous proteins in RIPA lysates of CCA tissues and TFK-1 and HuCCT1 cells; 1 mg total protein pre-cleared with rabbit IgG and protein A+G agarose; precipitated with anti-aPKC-ι or anti-14-3-3ζ antibody overnight at 4°C; washed 5 times with RIPA lysis buffer; Western blot with the other antibody; rabbit IgG as negative control.

These are yes or no findings as the source states them, for the method shown. In cells and extracts the contact can be indirect. Some binding calls cover weakened binding; strength is not graded here.

Regarding 14-3-3ζ (from UniProt P63104-1 1-245), the binding result is given as “binds”.

(Values after publication PMC5342411.)
